Patent publication US6645972B2, “Methods of treating leukemia” (Shire BioChem Inc., priority 2001, dated 2003)
Structures can show the parent of a compound that is named as a salt.

What was measured:
KBM7-STI^R1.0 cells = conditions: KBM7-STI^R1.0 vs KBM7
KBM5-STI^R1.0 cells = conditions: KBM5-STI^R1.0 vs KBM5

With Cc1ccc(NC(=O)c2ccc(CN3CCN(C)CC3)cc2)cc1Nc1nccc(-c2cccnc2)n1 [STI-571, imatinib mesylate] the “IC50 relative to the value in the corresponding cell line” value (KBM7-STI^R1.0 cells) was “about twenty” and the “IC50 relative to the value in the corresponding cell line” value (KBM5-STI^R1.0 cells) was “about twenty”.
